The target in test [1] is Smad3 (human (endogenous in Jurkat T, THP-1, MCF-7, HaCaT)), P84022. Kind of test: ELISA; plate coated with mouse anti-Smad3 antibody (1:500) as capture, blocked with 1% BSA; cell lysates (Jurkat T, THP-1, MCF-7, HaCaT; with or without 2 ng/ml TGF-β for 24 h) applied for 2 h; washed with TBST; Smad4 or TRIM33 bound to Smad3 detected with rabbit antibodies and HRP secondary antibody, absorbance at 492 nm. The settings on record: remark: other sources report otherwise. (In general: In an ELISA, binding on a coated surface is turned into a signal by an enzyme label.)

Chains of the proteins cited; added tags and fusions are not shown.
UniProt P84022: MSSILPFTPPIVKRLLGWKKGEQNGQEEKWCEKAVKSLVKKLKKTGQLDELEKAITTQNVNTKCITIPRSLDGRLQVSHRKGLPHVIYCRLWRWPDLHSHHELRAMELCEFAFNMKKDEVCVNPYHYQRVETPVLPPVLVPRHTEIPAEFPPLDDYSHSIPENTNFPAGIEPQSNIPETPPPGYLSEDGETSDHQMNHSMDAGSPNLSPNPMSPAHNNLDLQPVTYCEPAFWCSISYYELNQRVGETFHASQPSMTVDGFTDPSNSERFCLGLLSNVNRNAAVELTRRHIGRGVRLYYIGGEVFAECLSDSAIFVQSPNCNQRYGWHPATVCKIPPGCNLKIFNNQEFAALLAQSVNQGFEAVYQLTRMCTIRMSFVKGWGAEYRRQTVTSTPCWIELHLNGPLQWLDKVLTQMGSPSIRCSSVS

Test [2] concerns the target Smad3 (human (endogenous in Jurkat T, THP-1, MCF-7, HaCaT)) (UniProt P84022). The test is described as above.

These are yes or no findings as the source states them, for the method shown. Some entries that bind do so weakly or less than the wild type.

B1: Smad4, Q13485 1-552 (protein)
chain: MDNMSITNTPTSNDACLSIVHSLMCHRQGGESETFAKRAIESLVKKLKEKKDELDSLITAITTNGAHPSKCVTIQRTLDGRLQVAGRKGFPHVIYARLWRWPDLHKNELKHVKYCQYAFDLKCDSVCVNPYHYERVVSPGIDLSGLTLQSNAPSSMMVKDEYVHDFEGQPSLSTEGHSIQTIQHPPSNRASTETYSTPALLAPSESNATSTANFPNIPVASTSQPASILGGSHSEGLLQIASGPQPGQQQNGFTGQPATYHHNSTTTWTGSRTAPYTPNLPHHQNGHLQHHPPMPPHPGHYWPVHNELAFQPPISNHPAPEYWCSIAYFEMDVQVGETFKVPSSCPIVTVDGYVDPSGGDRFCLGQLSNVHRTEAIERARLHIGKGVQLECKGEGDVWVRCLSDHAVFVQSYYLDREAGRAPGDAVHKIYPSAYIKVFDLRQCHRQMQQQAATAQAAAAAQAAAVAGNIPGPGSVGGIAPAISLSAAAGIGVDDLRRLCILRMSFVKGWGPDYPRQSIKETPCWIEIHLHRALQLLDEVLHTMPIADPQPLD
On to B1, for which, in test [1], the binding result was “binds”.

B2: TRIM33 (tripartite motif-containing protein 33) (protein, UniProt Q9UPN9 1-1127)
chain: MAENKGGGEAESGGGGSGSAPVTAGAAGPAAQEAEPPLTAVLVEEEEEEGGRAGAEGGAAGPDDGGVAAASSGSAQAASSPAASVGTGVAGGAVSTPAPAPASAPAPGPSAGPPPGPPASLLDTCAVCQQSLQSRREAEPKLLPCLHSFCLRCLPEPERQLSVPIPGGSNGDIQQVGVIRCPVCRQECRQIDLVDNYFVKDTSEAPSSSDEKSEQVCTSCEDNASAVGFCVECGEWLCKTCIEAHQRVKFTKDHLIRKKEDVSESVGASGQRPVFCPVHKQEQLKLFCETCDRLTCRDCQLLEHKEHRYQFLEEAFQNQKGAIENLLAKLLEKKNYVHFAATQVQNRIKEVNETNKRVEQEIKVAIFTLINEINKKGKSLLQQLENVTKERQMKLLQQQNDITGLSRQVKHVMNFTNWAIASGSSTALLYSKRLITFQLRHILKARCDPVPAANGAIRFHCDPTFWAKNVVNLGNLVIESKPAPGYTPNVVVGQVPPGTNHISKTPGQINLAQLRLQHMQQQVYAQKHQQLQQMRMQQPPAPVPTTTTTTQQHPRQAAPQMLQQQPPRLISVQTMQRGNMNCGAFQAHQMRLAQNAARIPGIPRHSGPQYSMMQPHLQRQHSNPGHAGPFPVVSVHNTTINPTSPTTATMANANRGPTSPSVTAIELIPSVTNPENLPSLPDIPPIQLEDAGSSSLDNLLSRYISGSHLPPQPTSTMNPSPGPSALSPGSSGLSNSHTPVRPPSTSSTGSRGSCGSSGRTAEKTSLSFKSDQVKVKQEPGTEDEICSFSGGVKQEKTEDGRRSACMLSSPESSLTPPLSTNLHLESELDALASLENHVKIEPADMNESCKQSGLSSLVNGKSPIRSLMHRSARIGGDGNNKDDDPNEDWCAVCQNGGDLLCCEKCPKVFHLTCHVPTLLSFPSGDWICTFCRDIGKPEVEYDCDNLQHSKKGKTAQGLSPVDQRKCERLLLYLYCHELSIEFQEPVPASIPNYYKIIKKPMDLSTVKKKLQKKHSQHYQIPDDFVADVRLIFKNCERFNEMMKVVQVYADTQEINLKADSEVAQAGKAVALYFEDKLTEIYSDRTFAPLPEFEQEEDDGEVTEDSDEDFIQPRRKRLKSDERPVHIK
Regarding B2, the binding result in test [2] is “binds”.

The record behind these values is paper PMC8866318.
